Where a chain is given by its changes, count along the chain named. No constants are given. Whether binding was seen depends on the method and setting. Binding seen in cells or lysates may run through a third protein. Some binding calls cover weakened binding; strength is not graded here. Tags and fused reporters may be left off the sequences shown.
Legend:
Experiment in all cases: split reporter; split YFP BiFC in living TG1 ΔtatABCE cells (TatA also in ΔtatAE, TatB/TatC also in ΔtatB and ΔtatC); median fluorescence by flow cytometry against unfused Y1 or Y2 controls, fluorescence microscopy
[1] = target: T1, TatB fused to a YFP fragment (TatB-Y1; TatB-Y2) (E. coli) (UniProt P69425)
T1 sequence: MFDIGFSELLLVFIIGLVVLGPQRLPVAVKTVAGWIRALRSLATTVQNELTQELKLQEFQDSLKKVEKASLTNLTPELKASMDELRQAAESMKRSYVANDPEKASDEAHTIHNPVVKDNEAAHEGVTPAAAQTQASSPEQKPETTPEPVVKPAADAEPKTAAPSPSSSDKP

Protein sequences, listed by entry. Tags and fused reporters are not part of them.
UniProt P69853: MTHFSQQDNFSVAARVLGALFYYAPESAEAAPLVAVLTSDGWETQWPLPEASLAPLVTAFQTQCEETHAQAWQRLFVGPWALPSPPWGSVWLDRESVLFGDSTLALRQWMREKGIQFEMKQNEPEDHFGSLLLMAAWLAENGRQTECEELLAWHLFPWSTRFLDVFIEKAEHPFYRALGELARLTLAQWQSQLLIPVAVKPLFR

[2] = target: T2, TatC fused to a YFP fragment (TatC-Y1; TatC-Y2) (E. coli) (UniProt P69423)
T2 sequence: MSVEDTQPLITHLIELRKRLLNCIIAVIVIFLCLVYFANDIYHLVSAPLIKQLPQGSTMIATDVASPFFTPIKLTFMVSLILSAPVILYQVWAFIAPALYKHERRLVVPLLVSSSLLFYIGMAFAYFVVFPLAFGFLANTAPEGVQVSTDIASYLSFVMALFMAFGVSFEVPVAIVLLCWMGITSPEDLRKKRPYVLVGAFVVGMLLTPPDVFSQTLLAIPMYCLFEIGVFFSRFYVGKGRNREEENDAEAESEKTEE

[3] = target: T3, TatC(P48A) fused to a YFP fragment (P48A-Y1; P48A-Y2) (E. coli) (UniProt P69423)
T3 sequence: T2 sequence with P48A

Measured: binding

DmsD fused to a YFP fragment (DmsD-Y2; DmsD-Y1) (from UniProt P69853 1-204)
binds: all assays above

From article PMC2821923
